Measured data: PubChem BioAssay AID504793 (Drosophila RNAi Screening Center, 2011)
Screen: 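Whole-genome screen for parts of the DNA damage checkpoint at G2/M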 (primary screen). Cells: Drosophila S2R+ cells. Reagents: long dsRNA against Drosophila genes, about 0.25 µg dsRNA per well. Duration: 4 days of dsRNA, then 4 hours of drug before read-out. Treatment: doxorubicin 0.5 µM for 4 hours to cause double-strand breaks, in cells also given a low, harmless dose of dsRNA against nbs to sensitise the assay. Measurement: 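Mitotic index as the number of phospho-histone H3-positive cells in each well following doxorubicin, given as raw counts without normalisation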. Reading the numbers: mitotic cells: higher = more cells in mitosis, weaker G2 arrest. Active means: 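Genes are called active only when high mitotic counts were reproduced with independent dsRNAs and mitosis was checked for delay without damage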. Calls: active = confirmed in follow-up tests; inactive = not confirmed.
The deposit covers about 23,000 reagents; shown is an unselected part of those that have a named target and a result. In the full data, 62 (0.27%) were called active. 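Calls come from follow-up tests whose scores are not deposited, so confirmed genes may have low counts here; counts are not normalised per plate.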 Raw values vary from plate to plate and are shown uncorrected. A number with no mark means an inactive call. Names joined by + are all predicted targets of the reagent.

target gene	dsRNA	mitotic cells, replicate 1	mitotic cells, replicate 2
CG33128 (GeneID 326263)	DRSC00294	4	
CG33128 (GeneID 326263)	DRSC28698	4	
ng2 (GeneID 31298)	DRSC18803	12	
CG30471 (GeneID 246633)	DRSC07096	5	
Dph4 (GeneID 40686)	DRSC12318	5	
CG14767 (GeneID 50250)	DRSC06500	7	
CG14767 (GeneID 50250)	DRSC28418	9	
Flo1 (GeneID 36726)	DRSC07427	6	
Flo1 (GeneID 36726)	DRSC28122	6	
CG3386 (GeneID 38081)	DRSC08566	2	
CG3386 (GeneID 38081)	DRSC28282	6	
Dnz1 (GeneID 34503)	DRSC03317	4	
Dnz1 (GeneID 34503)	DRSC24926	13	
CG13461 (GeneID 39635)	DRSC10008	4	
CG13461 (GeneID 39635)	DRSC24462	10	
CG15747 (GeneID 32288)	DRSC19713	7	
CG15747 (GeneID 32288)	DRSC28586	6	
gnu (GeneID 39615)	DRSC10497	3	
fl(2)d (GeneID 36527)	DRSC07620	4	
wupA (GeneID 32794)	DRSC20385	15	
wupA (GeneID 32794)	DRSC22547	7	
wupA (GeneID 32794)	DRSC29330	9	
CG32733 (retired record) + CG32797	DRSC17705	7	10
Actn (GeneID 31166)	DRSC17724	13	
Actn (GeneID 31166)	DRSC25653	2	
CG9500 (GeneID 33888)	DRSC03237	1	
CG33124 (GeneID 318891)	DRSC00298	3	
Gr23a (GeneID 33453)	DRSC27488	4	
Ace (GeneID 41625)	DRSC14100	5	
Ace (GeneID 41625)	DRSC25364	4	
hrm (GeneID 35499)	DRSC04853	7	
ppk29 (GeneID 37844)	DRSC04205	3	
CG12104 (GeneID 38187)	DRSC08254	11	
CG12104 (GeneID 38187)	DRSC26773	7	
CG16812 (GeneID 34722)	DRSC02519	5	
CG16812 (GeneID 34722)	DRSC25180	5	
CG32017 (GeneID 317823)	DRSC17183	19	
CycY (GeneID 34593)	DRSC02420	7	
CycY (GeneID 34593)	DRSC25092	4	
Hgsnat (GeneID 31423)	DRSC18405	3	
Hgsnat (GeneID 31423)	DRSC24716	3	
Bx42 (GeneID 31840)	DRSC17743	5	
Bx42 (GeneID 31840)	DRSC27666	4	
CG12641 (retired record) (GeneID 31963)	DRSC23059	16	
CG6770 (GeneID 34621)	DRSC02992	4	9
CG6770 (GeneID 34621)	DRSC26414	8	
Ssu72 (GeneID 32973)	DRSC19572	11	
Ssu72 (GeneID 32973)	DRSC27868	5	
drosha (GeneID 35747)	DRSC07607	13	
Naxd (GeneID 40085)	DRSC09722	7	
CG34057 (GeneID 3885645)	DRSC08375	6	
CG6607 (GeneID 42925)	DRSC16073	14	
CG32271 (GeneID 38392)	DRSC08198	10	
CG32271 (GeneID 38392)	DRSC27093	3	
Cap-G (GeneID 36440)	DRSC06652	1	
Cap-G (GeneID 36440)	DRSC06653	7	
Cap-G (GeneID 36440)	DRSC21805	19	
Pex13 (GeneID 36462)	DRSC06877	5	
CG15473 (GeneID 31401)	DRSC18056	10	
a (GeneID 43852)	DRSC04668	8	
a (GeneID 43852)	DRSC27708	4	
unk (GeneID 42738)	DRSC17093	6	
unk (GeneID 42738)	DRSC28754	4	
Teh4 (GeneID 38501)	DRSC08457	2	
Gyc76C + CG42637	DRSC11180	7	
Ms (GeneID 44324)	DRSC16041	4	
Ms (GeneID 44324)	DRSC29774	9	
e(y)3 (GeneID 32965)	DRSC19450	11	
e(y)3 (GeneID 32965)	DRSC23698	14	
GstE11 (GeneID 37128)	DRSC06926	3	
CG5334 (GeneID 32402)	DRSC19941	16	
Cpr47Ea (GeneID 36188)	DRSC07333	9	
CG5742 (GeneID 37072)	DRSC06949	5	
CG5742 (GeneID 37072)	DRSC28146	6	
MKP-4 (GeneID 32963)	DRSC19567	4	
MKP-4 (GeneID 32963)	DRSC27673	4	
Nadsyn (GeneID 32328)	DRSC20222	22	
CG12164 (GeneID 35651)	DRSC06115	13	
CG12164 (GeneID 35651)	DRSC21777	11	
CG12164 (GeneID 35651)	DRSC25698	6	
Naglu (GeneID 46386)	DRSC02267	9	
CG14949 (GeneID 38328)	DRSC08408	6	
ATPsynepsilonL (GeneID 326144)	DRSC14548	5	
mRpL10 (GeneID 33182)	DRSC00312	8	
Cyp12e1 (GeneID 41272)	DRSC16622	11	
CG14277 (GeneID 34129)	DRSC02380	4	
Dad (GeneID 42059)	DRSC16642	9	
Dad (GeneID 42059)	DRSC28345	3	
CG6262 (GeneID 36833)	DRSC23105	9	
CG6262 (GeneID 36833)	DRSC27998	9	
Ubc6 (GeneID 40610)	DRSC12370	16	
Ubc6 (GeneID 40610)	DRSC28862	4	
CG14777 (GeneID 31099)	DRSC18563	12	
Tbcc (GeneID 319048)	DRSC00223	10	
Tbcc (GeneID 319048)	DRSC30109	7	
mop (GeneID 39610)	DRSC11065	3	
mop (GeneID 39610)	DRSC28489	3	
CG2267 (GeneID 43639)	DRSC15435	8	
CG9922 (GeneID 41708)	DRSC16579	3	
CG9922 (GeneID 41708)	DRSC29719	5	
kar (GeneID 45883)	DRSC14496	6	
Mes2 (GeneID 40514)	DRSC11593	7	
Mes2 (GeneID 40514)	DRSC11632	4	7
CG6937 + btn	DRSC16917	15	
CG13796 (GeneID 34051)	DRSC24686	5	
CG18735 (GeneID 59137)	DRSC04312	9	
CG18735 (GeneID 59137)	DRSC24372	4	
SP1173 (GeneID 38744)	DRSC11277	3	
CG17030 (GeneID 38591)	DRSC08503	7	
Uck (GeneID 42894)	DRSC16028	12	

A portion from the list above:
target gene	dsRNA	mitotic cells, replicate 1	mitotic cells, replicate 2
CG12164 (GeneID 35651)	DRSC06115	13	
CG12164 (GeneID 35651)	DRSC21777	11	
CG12164 (GeneID 35651)	DRSC25698	6	
Naglu (GeneID 46386)	DRSC02267	9	
CG14949 (GeneID 38328)	DRSC08408	6	
ATPsynepsilonL (GeneID 326144)	DRSC14548	5	
mRpL10 (GeneID 33182)	DRSC00312	8	
Cyp12e1 (GeneID 41272)	DRSC16622	11	
CG14277 (GeneID 34129)	DRSC02380	4	
Dad (GeneID 42059)	DRSC16642	9	
Dad (GeneID 42059)	DRSC28345	3	
CG6262 (GeneID 36833)	DRSC23105	9	
CG6262 (GeneID 36833)	DRSC27998	9	
Ubc6 (GeneID 40610)	DRSC12370	16	
